# Reference: publication PMC5123050
# Construct, isoform or probe ends are uncertain for at least one entry. For some of these results: Negatives hold for the conditions tested. For some of these results: At least one verdict rests on a figure or table, not on a statement of the authors. For some of these results: A weaker result is weaker than the reference pair of the same experiment.
# Experiments:
# Assay in all cases: EMSA
# [1] = test system: RNA polymerase (RNAP), 13 subunits (Sulfolobus solfataricus (Sso), strain M16:pSVA158); conditions: PIC EMSA: 10 mM MOPS pH 6.5, 10 mM MgCl2, 260 mM NaCl, 5 mM DTT, 10% glycerol, 0.067 mg/ml BSA, 20 ug/ml heparin, 65 C 5 min, 4-12% native PAGE, native protein
# [2] = test system: RNA polymerase (RNAP), 13 subunits + TBP (TATA-binding protein) + TFB (transcription factor B); conditions: PIC EMSA: 10 mM MOPS pH 6.5, 10 mM MgCl2, 260 mM NaCl, 5 mM DTT, 10% glycerol, 0.067 mg/ml BSA, 20 ug/ml heparin, 65 C 5 min, 4-12% native PAGE, label: 32P
# [3] = test system: RNA polymerase (RNAP), 13 subunits + TBP (TATA-binding protein) + TFB (transcription factor B) + TFEalpha/beta; conditions: PIC EMSA: 10 mM MOPS pH 6.5, 10 mM MgCl2, 260 mM NaCl, 5 mM DTT, 10% glycerol, 0.067 mg/ml BSA, 20 ug/ml heparin, 65 C 5 min, 4-12% native PAGE, label: 32P
Sequence,"binding result ([1]; no RNA, TEC strictly dependent on the RNA component)","binding result ([2]; 50 nM RNAP, 1 uM TBP, 0.125 uM TFB, 7.8 nM DNA, heparin)","binding result ([2]; RIP added after PIC formation, significant PIC fraction left at 16-fold excess RIP)","binding result ([2]; RIP pre-incubated with RNAP, PIC almost gone at 8-fold molar excess RIP)","binding result ([1]; no TBP and TFB, RNAP recruitment strictly dependent on both, label: 32P)","binding result ([3]; 0.5 uM TFE, supershift of minimal PIC)","binding result ([3]; with RIP (100-800 nM), lower RIP:RNAP ratio needed than without TFE)"
CCGGCAGTACTAGTAATGACCAGGCGTAACTACTTCATCTTAACTACTCTAATGGATCTCCCATATGGTGGAGGTAAGGGTGG / CCACCCTTACCTCCACCATATGGGAGATCCATTAGAGTAGTTAAGATGAAGTAGTTACGCCTGCTCATTACTAGTACTGCCGG [elongation scaffold without RNA],no binding,,,,,,
"GATTGATAGAGTAAAGTTTAAATACTTATATAGATAGAGTATAGATAGAGGGTTCAAAAAATGGTT / AACCATTTTTTGAACCCTCTGCTCATACTCTATCTATATAAGTATTTAAACTTTACTCTATCAATC [SSV1 T6 promoter, pre-melted -4/-1]",,binds,binds more weakly,binds more weakly,no binding,binds,binds more weakly
